Consider one substance from publication doi:10.1101/282822.

Amino acid sequences for entries named in this document (tags omitted). A change or cut given only in a name is not applied to a line headed by its entry.
UniProt Q99941, whole entry, stated change not applied: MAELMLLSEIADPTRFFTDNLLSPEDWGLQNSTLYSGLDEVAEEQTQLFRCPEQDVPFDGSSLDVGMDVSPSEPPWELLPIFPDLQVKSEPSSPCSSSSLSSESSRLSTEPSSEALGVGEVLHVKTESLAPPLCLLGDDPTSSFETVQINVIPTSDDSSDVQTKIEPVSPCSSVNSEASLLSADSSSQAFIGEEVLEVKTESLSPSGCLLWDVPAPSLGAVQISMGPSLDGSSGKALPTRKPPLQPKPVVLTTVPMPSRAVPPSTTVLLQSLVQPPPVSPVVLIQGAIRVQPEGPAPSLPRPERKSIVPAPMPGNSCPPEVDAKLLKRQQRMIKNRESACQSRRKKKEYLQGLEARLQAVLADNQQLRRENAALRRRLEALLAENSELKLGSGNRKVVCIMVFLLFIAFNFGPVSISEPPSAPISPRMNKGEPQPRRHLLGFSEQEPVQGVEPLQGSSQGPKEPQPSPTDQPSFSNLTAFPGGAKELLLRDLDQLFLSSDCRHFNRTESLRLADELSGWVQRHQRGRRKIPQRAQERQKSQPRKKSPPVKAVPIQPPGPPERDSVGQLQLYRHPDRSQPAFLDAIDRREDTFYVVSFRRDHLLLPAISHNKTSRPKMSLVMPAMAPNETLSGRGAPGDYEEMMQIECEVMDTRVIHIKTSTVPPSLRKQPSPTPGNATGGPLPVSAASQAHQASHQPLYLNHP

No constants are given. Whether binding was seen depends on the method and setting. In cells and extracts the contact can be indirect. A result given as binding can be weak or reduced; the word gives no strength.

The assay concerns the target HA-tagged ATF6β (UniProt Q99941). Nature of the assay: co-IP.

Regarding “ROP18 kinase dead (D409A mutant), Toxoplasma gondii rhoptry protein 18 (from UniProt Q2PAY2) (enzyme)”, the binding entry is “binds”.
